The text below walks through data of article PMC7517301.

Sequences of proteins named here, by UniProt entry; tags and fusion partners are left off.
UniProt P35222: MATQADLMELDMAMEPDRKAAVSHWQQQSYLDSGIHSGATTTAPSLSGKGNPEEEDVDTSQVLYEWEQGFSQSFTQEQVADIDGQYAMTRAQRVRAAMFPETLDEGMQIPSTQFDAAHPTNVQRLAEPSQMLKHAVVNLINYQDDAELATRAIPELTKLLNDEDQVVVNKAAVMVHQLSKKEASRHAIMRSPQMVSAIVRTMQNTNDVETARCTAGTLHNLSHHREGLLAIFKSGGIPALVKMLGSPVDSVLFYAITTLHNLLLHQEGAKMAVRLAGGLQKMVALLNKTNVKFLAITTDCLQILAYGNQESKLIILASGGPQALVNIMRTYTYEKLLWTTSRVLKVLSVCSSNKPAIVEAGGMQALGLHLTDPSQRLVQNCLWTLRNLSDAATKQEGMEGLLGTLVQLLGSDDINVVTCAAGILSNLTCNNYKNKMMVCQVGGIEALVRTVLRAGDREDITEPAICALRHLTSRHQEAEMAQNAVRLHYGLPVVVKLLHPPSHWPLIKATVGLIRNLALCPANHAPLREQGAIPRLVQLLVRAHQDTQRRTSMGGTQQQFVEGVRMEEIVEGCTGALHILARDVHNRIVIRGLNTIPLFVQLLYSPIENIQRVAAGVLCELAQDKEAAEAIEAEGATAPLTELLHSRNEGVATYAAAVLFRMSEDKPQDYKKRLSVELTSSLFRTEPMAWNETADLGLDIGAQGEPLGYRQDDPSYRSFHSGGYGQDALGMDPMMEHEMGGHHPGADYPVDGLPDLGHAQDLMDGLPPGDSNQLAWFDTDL
UniProt P51532: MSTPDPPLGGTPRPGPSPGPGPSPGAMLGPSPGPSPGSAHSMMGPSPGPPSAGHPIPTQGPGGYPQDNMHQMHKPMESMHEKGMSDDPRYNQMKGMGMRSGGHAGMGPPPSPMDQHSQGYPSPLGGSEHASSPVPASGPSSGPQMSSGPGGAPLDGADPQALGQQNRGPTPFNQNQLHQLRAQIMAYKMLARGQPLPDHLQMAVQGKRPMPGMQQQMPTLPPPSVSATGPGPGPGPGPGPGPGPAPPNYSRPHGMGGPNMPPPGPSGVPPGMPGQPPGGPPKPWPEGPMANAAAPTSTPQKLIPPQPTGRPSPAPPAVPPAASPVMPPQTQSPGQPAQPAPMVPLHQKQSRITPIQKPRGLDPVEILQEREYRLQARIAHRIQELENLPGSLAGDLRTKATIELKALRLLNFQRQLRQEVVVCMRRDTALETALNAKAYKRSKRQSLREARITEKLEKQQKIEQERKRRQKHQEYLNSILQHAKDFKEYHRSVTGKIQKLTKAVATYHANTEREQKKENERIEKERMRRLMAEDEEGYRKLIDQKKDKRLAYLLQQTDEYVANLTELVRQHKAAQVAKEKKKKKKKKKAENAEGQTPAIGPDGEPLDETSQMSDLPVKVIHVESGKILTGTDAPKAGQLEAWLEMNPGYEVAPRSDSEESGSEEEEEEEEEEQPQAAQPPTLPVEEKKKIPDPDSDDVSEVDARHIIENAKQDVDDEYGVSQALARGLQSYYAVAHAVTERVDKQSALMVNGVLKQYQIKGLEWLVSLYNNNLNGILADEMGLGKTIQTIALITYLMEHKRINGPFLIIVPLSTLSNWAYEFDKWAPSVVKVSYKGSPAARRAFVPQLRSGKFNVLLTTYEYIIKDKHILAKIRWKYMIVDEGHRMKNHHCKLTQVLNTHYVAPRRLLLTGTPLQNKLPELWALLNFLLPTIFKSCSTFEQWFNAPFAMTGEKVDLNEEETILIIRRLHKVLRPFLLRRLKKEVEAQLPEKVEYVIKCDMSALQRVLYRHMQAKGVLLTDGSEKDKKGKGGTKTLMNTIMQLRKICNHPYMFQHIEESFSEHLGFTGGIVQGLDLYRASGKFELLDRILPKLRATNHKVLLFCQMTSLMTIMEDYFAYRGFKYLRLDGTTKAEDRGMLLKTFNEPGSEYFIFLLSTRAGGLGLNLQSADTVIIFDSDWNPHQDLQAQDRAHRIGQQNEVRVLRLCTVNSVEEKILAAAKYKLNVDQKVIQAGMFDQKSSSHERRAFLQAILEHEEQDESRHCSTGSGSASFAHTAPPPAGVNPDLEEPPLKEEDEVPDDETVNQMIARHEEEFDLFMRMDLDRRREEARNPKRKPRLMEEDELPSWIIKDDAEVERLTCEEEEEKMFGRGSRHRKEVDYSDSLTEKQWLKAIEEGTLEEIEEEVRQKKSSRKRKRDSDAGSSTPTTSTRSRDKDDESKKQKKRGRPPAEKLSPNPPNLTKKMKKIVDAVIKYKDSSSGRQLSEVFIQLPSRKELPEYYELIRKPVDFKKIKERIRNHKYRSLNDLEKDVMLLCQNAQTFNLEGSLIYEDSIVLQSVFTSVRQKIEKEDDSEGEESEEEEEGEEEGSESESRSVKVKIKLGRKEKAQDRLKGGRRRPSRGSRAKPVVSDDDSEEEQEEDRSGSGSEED

The target in this assay is β-catenin (human (endogenous in SW480 and HCT116)) (UniProt P35222). Put plainly: Re-ChIP; chromatin cross-linked with 1% formaldehyde, sonicated to ~500 bp; first immune complexes eluted (1% SDS, 100 mM NaCO3), diluted in re-ChIP buffer and precipitated with a second antibody; read out by real-time PCR of the ADAM10/17/19 promoters.

These are yes or no findings as the source states them, for the method shown. Some binding calls cover weakened binding; strength is not graded here.

For BRG1 (from UniProt P51532 1-1647), the binding entry was “binds”.
